# Measured values from article PMC2852384.
# The chains behind the UniProt entries cited, without tags or fusion partners. Where a name states a change or a piece, a line headed by the entry shows the natural chain unless it says otherwise. A line that says so, or that is headed by a name, gives the form on record, which may keep a tag or linker.
# UniProt Q96DX5: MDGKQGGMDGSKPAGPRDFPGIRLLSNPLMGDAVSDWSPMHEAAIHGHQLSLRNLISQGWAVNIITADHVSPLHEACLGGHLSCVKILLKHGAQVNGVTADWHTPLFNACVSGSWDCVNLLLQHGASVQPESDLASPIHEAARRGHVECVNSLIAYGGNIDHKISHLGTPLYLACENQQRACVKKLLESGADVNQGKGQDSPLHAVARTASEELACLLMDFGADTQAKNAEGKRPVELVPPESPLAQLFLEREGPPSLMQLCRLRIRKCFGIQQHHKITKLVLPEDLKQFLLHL
# Myc-tagged ASB9ΔSOCS (natural splicing variant of ASB9 that lacks the SOCS box) (Q96DX5, form named): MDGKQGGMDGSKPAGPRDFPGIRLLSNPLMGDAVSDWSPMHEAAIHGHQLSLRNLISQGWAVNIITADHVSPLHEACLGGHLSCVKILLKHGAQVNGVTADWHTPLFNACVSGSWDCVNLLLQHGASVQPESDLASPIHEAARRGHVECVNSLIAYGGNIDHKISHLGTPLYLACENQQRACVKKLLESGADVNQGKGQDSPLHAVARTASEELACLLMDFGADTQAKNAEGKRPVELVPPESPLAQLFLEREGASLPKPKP
# These are yes or no findings as the source states them, for the method shown. Binding seen in cells or lysates may run through a third protein. Some binding calls cover weakened binding; strength is not graded here.
# Columns and labels:
# [1] = molecular target: Myc-tagged ASB9ΔSOCS (natural splicing variant of ASB9 that lacks the SOCS box) (human) (UniProt Q96DX5); assay: co-IP; anti-Myc immunoprecipitates from lysates of HEK293 cells stably expressing empty vector, Myc-tagged ASB9 or ASB9ΔSOCS; immunoblot for endogenous CKB, uMtCK and elongin B; IP buffer 10 mM HEPES pH 7.4, 150 mM NaCl, 5 mM EDTA, 1.0% NP-40, 4°C
# [2] = molecular target: Myc-tagged human ankyrin repeat and SOCS box protein 9 (ASB9) (human) (UniProt Q96DX5); assay: as above
# [3] = molecular target: endogenous ASB9 (human (endogenous in HEK293 and Huh-7)) (UniProt Q96DX5); assay: co-IP; endogenous proteins: anti-ASB9 immunoprecipitates from lysates of HEK293 and Huh-7 cells; immunoblot with anti-ASB9, anti-CKB, anti-uMtCK and anti-elongin B
# [4] = molecular target: Myc-tagged ASB9ΔSOCS (natural splicing variant of ASB9 that lacks the SOCS box) (human) (UniProt Q96DX5); assay: co-IP; Myc-tagged ASB9, ASB9ΔSOCS or ANK deletion mutants transiently cotransfected with HA-tagged uMtCK or uMtCKΔBS into HEK293 cells; anti-Myc immunoprecipitates, immunoblot with anti-Myc or anti-HA
# [5] = molecular target: Myc-tagged human ankyrin repeat and SOCS box protein 9 (ASB9) (human) (UniProt Q96DX5); assay: as above
binding [1],binding [2],binding [3],Substance,binding [4],binding [5]
binds,binds,binds,"ubiquitous mitochondrial creatine kinase (uMtCK), endogenous (from UniProt P12532 40-417) (enzyme)",,
,,,haemagglutinin (HA)-tagged uMtCK (from UniProt P12532 40-417) (enzyme),binds,binds
